Measured values taken from PubChem BioAssay AID504467 (National Center for Advancing Translational Sciences (NCATS), 2011).
Among all 330,000 compounds or so, about 7,700 (2.3%) were called active. The shares of active, inactive and inconclusive entries below differ from those in the screen. The call rests on the fitted dose curve; in most records, active means well fitted inhibition curve with a large enough effect; inconclusive means small, poorly fitted or top-dose-only effect, or effect the other way; inactive means flat fitted curve, though single readings scatter. Where the call is inconclusive, the potency comes from a doubtful curve fit.

Test: qHTS screen for small molecules that inhibit ELG1-dependent DNA repair in human embryonic kidney (HEK293T) cells expressing luciferase-tagged ELG1; further: nearly all actives have a fitted effect of over 55% in size
Settings: HEK293T ELG1-luciferase reporter, luminescence, 16 h, DNA damage induced by 5-fluorouridine; series mostly up to 46.1 µM
Method in brief: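 5-Fluorouridine DNA damage + compound/DMSO, 2,000 cells/well, 16 h, 37 °C/5% CO2. ONE-Glo, 30 min RT, luminescence. Readout = decrease in reporter signal.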
Potency means the concentration at half of the fitted maximal effect.

| SMILES | Potency |
| --- | --- |
| COc1ccc(/C=N/NC(=O)CCn2cnc(-c3ccccc3)c2-c2ccccc2)cc1 | inconclusive: 0.517 µM [inhibitor, partial curve, poor fit] |
| O=C(/C=C/c1cccc(Cl)c1)c1ccc([N+](=O)[O-])o1 | active: 7.3 µM |
| Cn1c(NCCc2ccccc2)cc(=O)n(C)c1=O | inactive |
| O=[N+]([O-])c1ccc(-n2cc(-c3ccccc3)nn2)cc1 | inconclusive: 11.6 µM [activator, partial curve] |
| Cc1cc(NC(=O)c2ccc3c(c2)C(=O)N(c2cccc(C)c2C)C3=O)no1 | inactive |
| Cc1ccc(C(C)(C)C)c(OCCCCN2CCCC2)c1 | inconclusive: 6.51 µM [inhibitor, partial curve, poor fit] |
| CCCCOc1ccc(C(=O)N2CCNC(=O)C2CC(=O)OC(C)C)cc1 (configuration not stated) | inactive |
| Cc1nnc2ccc(N3CCOCC3)nn12 | inconclusive: 13 µM [activator, partial curve] |
| Nc1c(NCCN2CCCCC2)c2ccccc2oc1=O | inactive |
| COC(=O)/C=C/C(=O)Nc1ccc(O)c(Cl)c1 | inactive |
| CC(=O)Nc1ccccc1C(=O)C(=O)Nc1cccc(C(=O)N2CC(C)CC(C)C2)c1 (configuration not stated) | inconclusive: 20.6 µM [inhibitor, partial curve] |
| Cn1c(COc2ccc(F)cc2)nc2ccccc21 | inconclusive: 16.4 µM [activator, partial curve] |
| CC(=O)c1ccc(N(C(=O)Cc2c[nH]c3ccccc23)C(C(=O)NC2CCCCC2)c2cccs2)cc1 (configuration not stated) | inconclusive: 18.4 µM [activator, single point] |
| O=C(NC(c1ccccc1)c1ccccc1)c1ccc(CO)cc1 | inactive |
| CCOc1ccc(S(=O)(=O)Nc2cc(C)ccn2)c2ccccc12 | inconclusive: 29.1 µM [activator, partial curve, poor fit] |
| CC1CCCN(S(=O)(=O)c2ccc3c(c2)n(C)c(=O)c(=O)n3C)C1 (configuration not stated) | inactive |
| COc1ccc(-c2cnnn2-c2ccc(NC(=O)c3ccco3)cc2)cc1OC | inconclusive: 0.92 µM [inhibitor, full curve, poor fit] |
| CC(C)=NOC(=O)c1c(C)noc1-c1snnc1C | inconclusive: 18.3 µM [activator, partial curve, poor fit] |
| O=C(Nc1ccccc1F)c1ccc2snnc2c1 | inconclusive: 18.3 µM [activator, partial curve] |
| Cc1ccccc1OCC(=O)Nc1ccccc1N1CCC(C)CC1 | inconclusive: 25.9 µM [inhibitor, partial curve, poor fit] |
| COc1ccc(C)c2sc(N(CCCN(C)C)C(=O)c3ccc4c(c3)OCCO4)nc12 | inactive |
| O=C(Nc1nc(-c2cccs2)cs1)c1cccc(S(=O)(=O)N2CCCCC2)c1 | inconclusive: 20.6 µM [inhibitor, single point] |
| COc1ccc(NC(=O)C2CCN(S(=O)(=O)c3cccs3)CC2)cc1OC | inconclusive: 35.5 µM [inhibitor, single point] |
| COc1cccc(NC(=S)NC2CC3CCCC(C2)N3C2CCCC2)c1 (configuration not stated) | inactive |
| Fc1ccc(Cc2nnc(-c3cccs3)o2)cc1 | inconclusive: 20.6 µM [activator, partial curve] |
| COc1cccc(/C=C2/Sc3ccc(C(=O)NCCCN4CCCC4)cc3NC2=O)c1 | inactive |

4 structures out of the list, sorted by number of heavy atoms, largest number first.

| SMILES | Potency |
| --- | --- |
| CC(=O)Nc1ccccc1C(=O)C(=O)Nc1cccc(C(=O)N2CC(C)CC(C)C2)c1 (configuration not stated) | inconclusive: 20.6 µM [inhibitor, partial curve] |
| Cc1ccccc1OCC(=O)Nc1ccccc1N1CCC(C)CC1 | inconclusive: 25.9 µM [inhibitor, partial curve, poor fit] |
| CC1CCCN(S(=O)(=O)c2ccc3c(c2)n(C)c(=O)c(=O)n3C)C1 (configuration not stated) | inactive |
| Cn1c(COc2ccc(F)cc2)nc2ccccc21 | inconclusive: 16.4 µM [activator, partial curve] |

Continuation.

| SMILES | Potency |
| --- | --- |
| O=C(Nc1ccccc1)/C(=C/c1ccccc1)c1ccccc1 | active: 10.3 µM |
| C1CCCCCC(=NNc2nn[nH]n2)CCCCC1 | inconclusive: 29.1 µM [activator, single point] |
| Cc1[nH]nc2c1-c1nc3ccccc3nc1C(C)(C)C2 | active: 9.2 µM |
| CCC(=O)N1CCN(c2ccc(NC(=O)COc3ccccc3[N+](=O)[O-])cc2)CC1 | active: 23.1 µM |
| COc1cccc(OCC(=O)NCC2CCCO2)c1 (configuration not stated) | inactive |
| CCn1c(SCC(=O)Nc2ccccc2OC)nc2ccccc2c1=O | inconclusive: 29.1 µM [inhibitor, single point] |
| CCn1cc(Br)c(C(=O)Nc2ccc(F)cc2F)n1 | inconclusive: 23.1 µM [activator, single point] |
| CC(C)(C)C(=O)OCc1cn(-c2ccccc2)nn1 | inconclusive: 10.3 µM [activator, partial curve] |
| O=C(NNC(=O)c1cccc([N+](=O)[O-])c1)c1ccncc1 | inactive |
| COc1c(C)cc(C(=O)C2CCCN(S(=O)(=O)c3c(C)noc3C)C2)cc1C (configuration not stated) | inconclusive: 29.1 µM [inhibitor, single point] |
| Cc1ccc(S(=O)(=O)c2ccc(Cl)cc2)cc1S(=O)(=O)N1CCOCC1 | inconclusive: 11.2 µM [inhibitor, partial curve, poor fit] |
| O=C(NCCCN1CCCC1=O)c1cc2ccccc2o1 | inconclusive: 14.6 µM [activator, partial curve] |
| COc1ccc(-c2nnc(SCC(=O)NCC3CCCO3)o2)cc1 (configuration not stated) | inactive |
| Cc1nn(C(C)C(=O)NCCCN2CCCC2)c(=O)c2nn(-c3ccccc3)c(C)c12 (configuration not stated) | inactive |
| COc1ccc(/C=N/Nc2nc(C)cc(-c3ccccc3)n2)cc1OC | inconclusive: 14.1 µM [inhibitor, partial curve, poor fit] |
| N/C(=N\OC(=O)CCc1ccccc1)c1cccc(Br)c1 | inactive |
| CCOC(=O)c1sc(N/N=C/c2ccc(N(C)C)cc2)nc1C | inactive |
| C=CCc1cc(Cl)ccc1OCCOCCNC(C)CC (configuration not stated) | inactive |
| Cc1ccc(S(=O)(=O)Nc2ccc(C(=O)Nc3ccncc3)cc2)cc1 | inconclusive: 16.4 µM [inhibitor, single point] |
| Cc1cccc2nc(COc3ccc(Cl)c4cccnc34)cn12 | inconclusive: 20.6 µM [activator, partial curve] |
| Cc1ccc(OC(=O)c2ccccc2C(=O)OCC(F)(F)C(F)F)cc1 | inconclusive: 10.3 µM [inhibitor, partial curve] |
| CCn1c(SCC(=O)N(C)C)nc2cc(S(=O)(=O)N3CCCCC3)ccc21 | inactive |
| O=C(Nc1ccccc1C(=O)O)c1cc(S(=O)(=O)N2CCCCC2)c(Cl)cc1Cl | inconclusive: 29.1 µM [inhibitor, single point] |
| CN(C)S(=O)(=O)c1cc(NC(=O)COC(=O)CCSc2ccc(Cl)cc2)ccc1Cl | inactive |
| Cc1ccc(/C=C/c2nc3ccccc3c(=O)[nH]2)cc1 | inconclusive: 0.517 µM [activator, full curve] |
| COc1ccc(CC(=O)Nc2ccc(S(=O)(=O)Nc3ncccn3)cc2)cc1 | inactive |

| SMILES | Potency |
| --- | --- |
| CCOc1ccc(-c2cc(C(=O)NCCCn3ccnc3)c3cc(Br)ccc3n2)cc1 | inconclusive: 29.1 µM [inhibitor, single point] |
| CCC1CCc2c(sc3nc(SCC(=O)NCc4ccco4)n(-c4ccccc4)c(=O)c23)C1 (configuration not stated) | inconclusive: 10.3 µM [activator, partial curve, poor fit] |
| O=C(Nc1cccc(NC(=O)N2CCN(c3ccccc3)CC2)c1)N1CCN(c2ccccc2)CC1 | inconclusive: 20.6 µM [inhibitor, single point] |
| COc1cccc([C@@H]2CC=C(C(=O)O)[C@H](c3cccc(Cl)c3)N2S(=O)(=O)c2ccc(C)cc2)c1 | inactive |
| CC(=O)NC1C(=O)N(CCN2CCOCC2)c2ccc(C)cc21 (configuration not stated) | inactive |
| Cn1c(=O)oc2cc(S(=O)(=O)N3CCCC(C(=O)N4CC=C(c5ccccc5)CC4)C3)ccc21 (configuration not stated) | active: 5.8 µM |
| Cc1nn(Cc2ccc(C(=O)Nc3nc4c(C)cccc4s3)o2)c(C)c1Br | inconclusive: 23.1 µM [inhibitor, partial curve, poor fit] |
| O=C(CNS(=O)(=O)c1ccc(Br)s1)N1CCN(c2ncccn2)CC1 | inactive |
| CN1C(=O)Cc2cc(S(=O)(=O)NCc3cccs3)ccc21 | inactive |
| C/C(=N/OC(=O)c1cccc(Cl)c1)c1nccs1 | inactive |
| COc1ccc(OC)c(NC(=O)c2cc(-c3ccc(C)cc3O)n[nH]2)c1 | inconclusive: 18.4 µM [activator, partial curve, poor fit] |
| COc1ccc(C(=O)NCC(=O)OCc2c(Cl)cccc2Cl)cc1OC | inactive |
| COc1cccc(CNC2CCCCCCC2)c1OC | inactive |
| Clc1ccccc1OCc1nc(-c2ccccn2)no1 | inconclusive: 8.2 µM [activator, partial curve] |
| CNC(=O)NC(=O)C(C)OC(=O)c1c2c(nc3ccccc13)/C(=C/c1cccs1)CC2 (configuration not stated) | active: 9.2 µM |
| CCOc1c(Br)cc(C(N)=O)cc1OCc1ccccc1 | inactive |
| COc1cc(/C=N/O)ccc1Oc1cnccn1 | inactive |
| CCOCCCNC(=O)/C(C#N)=C/c1ccc(-c2ccc(S(=O)(=O)N3CCOCC3)cc2)o1 | inconclusive: 20.6 µM [inhibitor, partial curve] |
| Cc1cc(C)nc(N2C(=O)CC(C(C)c3ccccc3)C2=O)n1 (configuration not stated) | inactive |
| CCCCNC(=O)/C=C/c1cccs1 | inconclusive: 23.1 µM [activator, partial curve] |
| CC1(C)CC(=O)C/C(=N\NC(=O)C2CC2c2ccccc2)C1 (configuration not stated) | inactive |
| CN=c1scc(-c2ccccc2Br)n1/N=C/c1ccc[nH]1 | inconclusive: 1.03 µM [activator, partial curve] |
| Cc1ccc2oc(C(=O)N3CCN(Cc4nccn4C)CC3)c(C)c2c1 | inactive |
| Brc1ccc(-c2ncc(-c3ccccc3)cn2)cc1 | inconclusive: 1.03 µM [activator, full curve] |
| COc1ccccc1NC(=S)NNC(=O)c1nn(C)c(C)c1Br | inconclusive: 13 µM [activator, partial curve] |
